Measured values reported in paper PMC6113293, “Phosphorylation of ULK1 affects autophagosome fusion and links chaperone-mediated autophagy to macroautophagy” (Nature Communications, 2018).
These are yes or no findings as the source states them, for the method shown. Binding seen in cells or lysates may run through a third protein. Some entries that bind do so weakly or less than the wild type. For some assays here: Tags and fused reporters may be left off the sequences shown.

Tests used:
[1] = target: T1, STX17 (endogenous) (human (endogenous in HeLa)), P56962; assay: co-IP; endogenous proteins, HeLa lysate; IP with anti-ULK1 or anti-STX17 antibody or IgG; western blot; cells also serum-starved, treated with CQ, PMA or GÖ6983, or transfected with Myc-ULK1 variants; conditions: remark: other sources report otherwise
T1 chain: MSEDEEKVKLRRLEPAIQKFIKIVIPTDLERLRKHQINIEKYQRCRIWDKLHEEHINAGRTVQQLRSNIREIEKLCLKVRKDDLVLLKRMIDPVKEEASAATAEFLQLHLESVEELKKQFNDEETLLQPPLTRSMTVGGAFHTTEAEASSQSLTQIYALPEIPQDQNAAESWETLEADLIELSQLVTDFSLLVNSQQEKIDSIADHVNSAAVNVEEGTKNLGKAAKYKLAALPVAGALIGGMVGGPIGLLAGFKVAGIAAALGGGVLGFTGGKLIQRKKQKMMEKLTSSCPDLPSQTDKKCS

[2] = target: T1, STX17 (endogenous) (human (endogenous …)); assay: co-IP; interaction of ULK1 and STX17 in cells with overexpression or knock-down of SNAP29 or knock-down of VAMP8; cells and constructs not given; conditions: remark: other sources report otherwise
GFP-STX17, P56962 = target: T2, GFP-STX17, P56962; assay: proximity ligation; GFP-STX17 co-transfected with Myc-ULK1 variants or Myc vector into HeLa; anti-Myc and anti-GFP antibodies; with or without serum starvation; conditions: remark: other sources report otherwise
T2 chain: T1 chain

Myc-ULK1 WT, O75385 = target: T3, Myc-ULK1 WT, O75385; assay: co-IP; semi-endogenous: Myc-ULK1 variants transfected, endogenous partners detected in the IP by their antibodies; conditions: remark: other sources report otherwise
T3 chain: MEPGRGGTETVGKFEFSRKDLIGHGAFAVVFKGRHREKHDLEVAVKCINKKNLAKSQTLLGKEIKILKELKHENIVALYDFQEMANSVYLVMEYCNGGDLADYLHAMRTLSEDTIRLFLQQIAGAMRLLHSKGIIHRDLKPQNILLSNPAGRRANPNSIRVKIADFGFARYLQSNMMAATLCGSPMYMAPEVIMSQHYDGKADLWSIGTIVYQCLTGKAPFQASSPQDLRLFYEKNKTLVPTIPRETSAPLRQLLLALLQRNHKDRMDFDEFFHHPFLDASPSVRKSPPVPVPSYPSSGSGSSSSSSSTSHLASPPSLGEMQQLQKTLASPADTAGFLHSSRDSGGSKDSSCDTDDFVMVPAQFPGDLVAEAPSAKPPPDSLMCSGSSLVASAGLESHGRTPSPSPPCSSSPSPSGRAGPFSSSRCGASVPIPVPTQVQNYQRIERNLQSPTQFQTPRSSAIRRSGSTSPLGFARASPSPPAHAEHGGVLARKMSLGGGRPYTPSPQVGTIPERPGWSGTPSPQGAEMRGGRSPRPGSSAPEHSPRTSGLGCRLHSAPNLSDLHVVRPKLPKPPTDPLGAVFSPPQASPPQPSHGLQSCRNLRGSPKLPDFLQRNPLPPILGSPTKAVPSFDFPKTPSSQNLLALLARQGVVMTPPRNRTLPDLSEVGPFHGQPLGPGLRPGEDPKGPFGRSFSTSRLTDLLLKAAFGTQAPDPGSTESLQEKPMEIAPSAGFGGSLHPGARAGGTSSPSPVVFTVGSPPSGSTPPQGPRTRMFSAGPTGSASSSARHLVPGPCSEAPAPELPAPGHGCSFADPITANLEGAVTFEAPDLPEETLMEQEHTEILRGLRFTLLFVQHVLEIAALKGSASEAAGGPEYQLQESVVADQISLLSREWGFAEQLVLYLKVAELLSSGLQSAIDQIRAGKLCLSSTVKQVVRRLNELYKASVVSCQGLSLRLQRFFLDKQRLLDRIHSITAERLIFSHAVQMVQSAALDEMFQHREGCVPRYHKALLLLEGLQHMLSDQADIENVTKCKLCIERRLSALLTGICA

[3] = target: T4, Myc-ULK1, PKCα kinase treated, O75385; assay: pull-down; Myc-ULK1 immunoprecipitated from HEK293, beads split in three and treated with CIP or PKCα kinase assay, then incubated with normal cell lysate; endogenous STX17 detected; only the target purified; conditions: remark: other sources report otherwise
T4 chain: T3 chain

[4] = target: T5, Myc-ULK1, CIP treated, O75385; assay: as above; conditions: remark: other sources report otherwise
T5 chain: T3 chain

[5] = target: T6, STX17 (endogenous, mouse liver) (mouse (endogenous in liver)) (UniProt Q9D0I4); assay: co-IP; mouse liver lysate; IP with anti-STX17 antibody, ULK1 detected; mice injected with GÖ6983 or PBS for 7 days, or fasted 16 h or fed
T6 sequence: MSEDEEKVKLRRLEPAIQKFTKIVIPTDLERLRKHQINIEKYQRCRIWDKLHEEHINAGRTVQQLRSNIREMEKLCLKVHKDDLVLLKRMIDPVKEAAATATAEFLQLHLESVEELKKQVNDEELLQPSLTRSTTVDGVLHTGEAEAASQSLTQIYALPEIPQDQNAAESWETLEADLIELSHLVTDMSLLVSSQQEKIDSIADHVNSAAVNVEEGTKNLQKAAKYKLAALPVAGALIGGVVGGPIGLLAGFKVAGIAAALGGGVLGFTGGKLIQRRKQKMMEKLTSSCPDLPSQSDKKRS

Flag-SBP-STX17, P56962 = target: T7, Flag-SBP-STX17, P56962; assay: pull-down; Flag-SBP-STX17 co-transfected with GFP-SNAP29 or VAMP8 and GST-ULK1 variants into HEK293T; 'IP assay with SBP beads'; with or without CQ or bafilomycin A; conditions: remark: other sources report otherwise
T7 chain: T1 chain

B1: ULK1 (endogenous), O75385 1-1050 (enzyme)
chain: T3 chain
In the case of B1, the binding [1] is reported as “binds” and the binding [2] is reported as “binds”.

B2: Myc-ULK1 WT, O75385 1-1050 (enzyme)
chain: T3 chain
For B2, the binding (GFP-STX17, P56962) was “binds”.

B3: STX17 (endogenous), P56962 1-302 (protein)
chain: T1 chain
With B3 the binding (Myc-ULK1 WT, O75385) was “binds”, the binding [3] was “binds” and the binding [4] was “binds”.

B4: ULK1 (endogenous, mouse liver) (enzyme, UniProt O70405 1-1051)
chain: MEPGRGGVETVGKFEFSRKDLIGHGAFAVVFKGRHREKHDLEVAVKCINKKNLAKSQTLLGKEIKILKELKHENIVALYDFQEMANSVYLVMEYCNGGDLADYLHTMRTLSEDTVRLFLQQIAGAMRLLHSKGIIHRDLKPQNILLSNPGGRRANPSNIRVKIADFGFARYLQSNMMAATLCGSPMYMAPEVIMSQHYDGKADLWSIGTIVYQCLTGKAPFQASSPQDLRLFYEKNKTLVPAIPRETSAPLRQLLLALLQRNHKDRMDFDEFFHHPFLDASTPIKKSPPVPVPSYPSSGSGSSSSSSSASHLASPPSLGEMPQLQKTLTSPADAAGFLQGSRDSGGSSKDSCDTDDFVMVPAQFPGDLVAEAASAKPPPDSLLCSGSSLVASAGLESHGRTPSPSPTCSSSPSPSGRPGPFSSNRYGASVPIPVPTQVHNYQRIEQNLQSPTQQQTARSSAIRRSGSTTPLGFGRASPSPPSHTDGAMLARKLSLGGGRPYTPSPQVGTIPERPSWSRVPSPQGADVRVGRSPRPGSSVPEHSPRTTGLGCRLHSAPNLSDFHVVRPKLPKPPTDPLGATFSPPQTSAPQPCPGLQSCRPLRGSPKLPDFLQRSPLPPILGSPTKAGPSFDFPKTPSSQNLLTLLARQGVVMTPPRNRTLPDLSEASPFHGQQLGSGLRPAEDTRGPFGRSFSTSRITDLLLKAAFGTQASDSGSTDSLQEKPMEIAPSAGFGGTLHPGARGGGASSPAPVVFTVGSPPSGATPPQSTRTRMFSVGSSSSLGSTGSSSARHLVPGACGEAPELSAPGHCCSLADPLAANLEGAVTFEAPDLPEETLMEQEHTETLHSLRFTLAFAQQVLEIAALKGSASEAAGGPEYQLQESVVADQISQLSREWGFAEQLVLYLKVAELLSSGLQTAIDQIRAGKLCLSSTVKQVVRRLNELYKASVVSCQGLSLRLQRFFLDKQRLLDGIHGVTAERLILSHAVQMVQSAALDEMFQHREGCVPRYHKALLLLEGLQHTLTDQADIENIAKCKLCIERRLSALLSGVYA
In the case of B4, the binding [5] is reported as “binds”.

B5: VAMP8 (transfected, tag not told), Q9BV40 1-100 (protein)
chain: MEEASEGGGNDRVRNLQSEVEGVKNIMTQNVERILARGENLEHLRNKTEDLEATSEHFKTTSQKVARKFWWKNVKMIVLICVIVFIIILFIVLFATGAFS
With B5 the binding (Flag-SBP-STX17, P56962) was “binds”.
